Literature values, collected in patent publication US8637702B2, “Derivatives of N-hydroxybenzamide for treating HIV infections” (Italfarmaco S.p.A., priority 2009, dated 2014).

System: HIV-1 gene expression in the ACH-2 cell line
Conditions: read-out: EC50 for induction of HIV-1 gene expression, from WO 2008/097654; cited from earlier work

O=C(CCCCCCC(=O)Nc1ccccc1)NO [SAHA]
EC50: 632 nM
